Compound in this experiment: CN[C@@H]1C[C@H]2O[C@@](C)([C@@H]1OC)n1c3ccccc3c3c4c(c5c6ccccc6n2c5c31)C(=O)NC4 [staurosporine]
Description: log2 fold change of pooled soluble protein (PISA), ligand vs vehicle (log2 ratio); higher = more thermally stabilized. The following applies: ligand concentration: 20 uM; assay format: PISA pool 52.9/55.5/58.6 C.

Amino acid sequences for entries named in this document (tags omitted). A change or cut given only in a name is not applied to a line headed by its entry.
UniProt Q99J83: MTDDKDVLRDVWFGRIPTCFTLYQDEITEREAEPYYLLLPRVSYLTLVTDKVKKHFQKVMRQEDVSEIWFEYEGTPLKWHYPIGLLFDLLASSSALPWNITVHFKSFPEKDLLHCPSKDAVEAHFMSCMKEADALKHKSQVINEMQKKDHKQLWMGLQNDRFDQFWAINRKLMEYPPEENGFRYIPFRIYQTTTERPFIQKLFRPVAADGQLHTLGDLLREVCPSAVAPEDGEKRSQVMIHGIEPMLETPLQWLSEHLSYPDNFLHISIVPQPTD
UniProt Q91W67: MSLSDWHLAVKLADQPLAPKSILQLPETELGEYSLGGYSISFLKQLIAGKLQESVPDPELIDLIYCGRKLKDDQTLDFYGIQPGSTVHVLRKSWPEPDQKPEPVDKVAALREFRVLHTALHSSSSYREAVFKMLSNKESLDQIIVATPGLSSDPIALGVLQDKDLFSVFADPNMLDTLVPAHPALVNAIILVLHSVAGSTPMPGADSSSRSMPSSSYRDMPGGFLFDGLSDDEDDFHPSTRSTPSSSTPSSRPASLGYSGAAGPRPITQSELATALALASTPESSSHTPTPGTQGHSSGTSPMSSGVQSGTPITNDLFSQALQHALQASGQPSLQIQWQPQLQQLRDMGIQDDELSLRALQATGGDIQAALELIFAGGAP
UniProt Q924Y0: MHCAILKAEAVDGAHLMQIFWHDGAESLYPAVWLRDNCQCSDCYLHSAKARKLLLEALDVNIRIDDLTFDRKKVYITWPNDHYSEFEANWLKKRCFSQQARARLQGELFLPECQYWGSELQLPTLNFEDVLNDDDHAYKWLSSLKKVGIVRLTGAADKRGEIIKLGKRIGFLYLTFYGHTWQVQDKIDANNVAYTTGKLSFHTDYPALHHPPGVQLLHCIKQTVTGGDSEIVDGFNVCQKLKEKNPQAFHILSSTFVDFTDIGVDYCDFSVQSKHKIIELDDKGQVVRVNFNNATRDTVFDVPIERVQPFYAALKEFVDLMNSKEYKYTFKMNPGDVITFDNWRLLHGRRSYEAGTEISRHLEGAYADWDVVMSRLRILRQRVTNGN
UniProt Q8VHE0: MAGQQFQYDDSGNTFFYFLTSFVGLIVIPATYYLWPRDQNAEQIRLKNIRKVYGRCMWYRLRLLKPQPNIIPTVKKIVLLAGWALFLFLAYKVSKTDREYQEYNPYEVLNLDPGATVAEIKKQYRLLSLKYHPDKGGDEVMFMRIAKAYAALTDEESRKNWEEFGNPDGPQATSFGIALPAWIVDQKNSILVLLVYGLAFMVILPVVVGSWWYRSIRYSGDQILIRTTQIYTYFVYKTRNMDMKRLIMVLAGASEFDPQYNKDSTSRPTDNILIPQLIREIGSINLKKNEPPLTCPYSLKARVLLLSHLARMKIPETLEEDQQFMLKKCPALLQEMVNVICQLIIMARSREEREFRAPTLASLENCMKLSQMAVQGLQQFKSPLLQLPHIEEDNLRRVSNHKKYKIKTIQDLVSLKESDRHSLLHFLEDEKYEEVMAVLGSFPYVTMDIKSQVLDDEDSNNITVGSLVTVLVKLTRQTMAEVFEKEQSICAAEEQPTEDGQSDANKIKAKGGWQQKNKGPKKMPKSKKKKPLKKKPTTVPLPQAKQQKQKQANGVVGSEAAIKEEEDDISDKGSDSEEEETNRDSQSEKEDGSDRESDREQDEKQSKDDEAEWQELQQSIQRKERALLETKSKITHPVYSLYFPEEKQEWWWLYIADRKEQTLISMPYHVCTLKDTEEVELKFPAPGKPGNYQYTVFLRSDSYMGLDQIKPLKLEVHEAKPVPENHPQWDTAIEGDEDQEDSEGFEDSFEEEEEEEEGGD
UniProt Q91VS7: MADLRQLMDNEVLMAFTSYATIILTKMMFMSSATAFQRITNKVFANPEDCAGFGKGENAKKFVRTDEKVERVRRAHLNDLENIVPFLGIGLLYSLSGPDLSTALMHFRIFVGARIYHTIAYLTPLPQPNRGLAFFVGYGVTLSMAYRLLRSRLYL
UniProt Q91YR1, whole entry: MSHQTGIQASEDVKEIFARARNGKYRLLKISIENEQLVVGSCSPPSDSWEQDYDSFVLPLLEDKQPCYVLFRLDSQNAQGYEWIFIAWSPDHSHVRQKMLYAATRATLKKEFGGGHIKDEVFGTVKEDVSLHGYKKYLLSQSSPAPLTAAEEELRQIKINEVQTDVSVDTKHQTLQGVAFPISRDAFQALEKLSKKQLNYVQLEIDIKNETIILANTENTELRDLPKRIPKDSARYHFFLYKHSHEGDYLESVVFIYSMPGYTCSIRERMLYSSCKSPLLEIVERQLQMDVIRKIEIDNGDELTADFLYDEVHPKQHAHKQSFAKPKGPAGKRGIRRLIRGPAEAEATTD
UniProt Q8VHH5: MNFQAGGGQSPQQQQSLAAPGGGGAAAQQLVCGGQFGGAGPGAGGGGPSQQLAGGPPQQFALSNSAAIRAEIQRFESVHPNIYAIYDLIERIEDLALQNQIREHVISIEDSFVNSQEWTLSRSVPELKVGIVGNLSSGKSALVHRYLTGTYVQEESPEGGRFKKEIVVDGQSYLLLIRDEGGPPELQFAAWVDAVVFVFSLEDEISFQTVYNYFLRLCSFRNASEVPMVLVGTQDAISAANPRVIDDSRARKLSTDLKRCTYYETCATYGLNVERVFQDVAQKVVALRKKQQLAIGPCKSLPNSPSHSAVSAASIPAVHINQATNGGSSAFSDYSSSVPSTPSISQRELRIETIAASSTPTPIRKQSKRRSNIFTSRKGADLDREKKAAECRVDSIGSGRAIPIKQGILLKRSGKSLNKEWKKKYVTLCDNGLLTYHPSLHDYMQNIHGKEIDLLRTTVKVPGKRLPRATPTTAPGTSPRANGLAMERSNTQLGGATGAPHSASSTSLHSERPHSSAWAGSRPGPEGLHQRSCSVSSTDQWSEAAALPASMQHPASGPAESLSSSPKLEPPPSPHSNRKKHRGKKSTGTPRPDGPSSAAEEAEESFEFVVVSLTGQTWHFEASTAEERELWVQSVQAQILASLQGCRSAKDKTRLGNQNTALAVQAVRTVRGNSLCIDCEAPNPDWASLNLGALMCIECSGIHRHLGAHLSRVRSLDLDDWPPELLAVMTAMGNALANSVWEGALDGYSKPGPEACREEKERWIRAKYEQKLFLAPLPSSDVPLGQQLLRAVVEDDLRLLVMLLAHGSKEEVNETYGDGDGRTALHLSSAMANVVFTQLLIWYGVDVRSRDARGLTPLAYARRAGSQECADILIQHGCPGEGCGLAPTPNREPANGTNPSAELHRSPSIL
UniProt Q91WK2, whole entry: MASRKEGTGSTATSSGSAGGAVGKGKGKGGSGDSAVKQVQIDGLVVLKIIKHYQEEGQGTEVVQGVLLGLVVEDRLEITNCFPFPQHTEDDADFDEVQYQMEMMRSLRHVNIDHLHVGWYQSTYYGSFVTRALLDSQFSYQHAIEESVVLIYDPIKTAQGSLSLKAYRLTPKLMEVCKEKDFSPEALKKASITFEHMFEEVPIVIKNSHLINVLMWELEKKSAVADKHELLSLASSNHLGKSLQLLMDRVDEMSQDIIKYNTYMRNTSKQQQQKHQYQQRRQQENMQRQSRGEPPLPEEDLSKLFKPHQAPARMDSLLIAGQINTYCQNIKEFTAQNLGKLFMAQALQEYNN
UniProt Q91V92: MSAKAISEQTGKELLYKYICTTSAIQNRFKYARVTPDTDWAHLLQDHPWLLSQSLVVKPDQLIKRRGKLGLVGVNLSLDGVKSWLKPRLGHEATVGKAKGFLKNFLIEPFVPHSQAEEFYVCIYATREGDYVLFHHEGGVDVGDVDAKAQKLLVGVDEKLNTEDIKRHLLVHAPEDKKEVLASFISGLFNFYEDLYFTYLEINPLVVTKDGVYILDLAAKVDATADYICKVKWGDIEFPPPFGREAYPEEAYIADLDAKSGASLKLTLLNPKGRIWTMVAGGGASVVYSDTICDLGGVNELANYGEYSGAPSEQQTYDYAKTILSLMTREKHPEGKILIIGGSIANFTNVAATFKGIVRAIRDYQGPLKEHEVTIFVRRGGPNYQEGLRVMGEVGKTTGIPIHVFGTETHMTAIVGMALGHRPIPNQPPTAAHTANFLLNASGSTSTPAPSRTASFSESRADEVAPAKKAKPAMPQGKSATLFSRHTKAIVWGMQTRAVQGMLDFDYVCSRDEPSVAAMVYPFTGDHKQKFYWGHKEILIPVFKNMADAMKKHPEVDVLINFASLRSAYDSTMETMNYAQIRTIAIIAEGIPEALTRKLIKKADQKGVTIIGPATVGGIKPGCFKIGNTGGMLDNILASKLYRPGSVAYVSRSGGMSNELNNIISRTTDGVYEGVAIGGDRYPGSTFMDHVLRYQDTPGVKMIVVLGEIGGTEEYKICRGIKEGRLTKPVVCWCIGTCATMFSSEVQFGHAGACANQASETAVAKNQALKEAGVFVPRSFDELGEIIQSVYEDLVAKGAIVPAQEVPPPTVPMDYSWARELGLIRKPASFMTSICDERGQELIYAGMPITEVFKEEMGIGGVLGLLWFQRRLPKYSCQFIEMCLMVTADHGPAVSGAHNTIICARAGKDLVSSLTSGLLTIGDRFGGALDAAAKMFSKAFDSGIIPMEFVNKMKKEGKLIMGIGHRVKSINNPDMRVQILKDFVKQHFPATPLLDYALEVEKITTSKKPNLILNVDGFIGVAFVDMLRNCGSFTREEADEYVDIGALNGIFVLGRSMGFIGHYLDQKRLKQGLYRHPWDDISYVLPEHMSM
UniProt Q91V16: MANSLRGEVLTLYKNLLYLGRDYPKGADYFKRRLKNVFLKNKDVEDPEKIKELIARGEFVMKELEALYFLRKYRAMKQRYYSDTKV
UniProt Q91VW3: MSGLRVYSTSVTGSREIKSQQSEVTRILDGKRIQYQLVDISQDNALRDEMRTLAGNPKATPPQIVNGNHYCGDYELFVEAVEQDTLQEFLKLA
UniProt Q924T3: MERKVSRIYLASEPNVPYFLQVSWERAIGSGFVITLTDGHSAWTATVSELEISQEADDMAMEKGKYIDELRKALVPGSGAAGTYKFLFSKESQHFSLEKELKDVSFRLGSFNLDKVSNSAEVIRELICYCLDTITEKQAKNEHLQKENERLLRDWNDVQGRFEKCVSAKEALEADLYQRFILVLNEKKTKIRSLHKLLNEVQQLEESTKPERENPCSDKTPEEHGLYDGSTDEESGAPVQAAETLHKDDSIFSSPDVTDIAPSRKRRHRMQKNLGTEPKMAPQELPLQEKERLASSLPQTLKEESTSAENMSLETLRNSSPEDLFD
UniProt Q99JB2: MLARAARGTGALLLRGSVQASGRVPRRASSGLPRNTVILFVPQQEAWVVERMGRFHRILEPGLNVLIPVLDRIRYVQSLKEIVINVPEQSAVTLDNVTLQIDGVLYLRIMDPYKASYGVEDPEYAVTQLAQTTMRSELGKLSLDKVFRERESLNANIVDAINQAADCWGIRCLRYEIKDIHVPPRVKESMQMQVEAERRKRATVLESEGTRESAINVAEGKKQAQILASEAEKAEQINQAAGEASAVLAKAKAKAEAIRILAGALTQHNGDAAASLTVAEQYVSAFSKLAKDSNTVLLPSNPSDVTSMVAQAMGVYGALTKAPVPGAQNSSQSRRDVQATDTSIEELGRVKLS
UniProt Q91XU3: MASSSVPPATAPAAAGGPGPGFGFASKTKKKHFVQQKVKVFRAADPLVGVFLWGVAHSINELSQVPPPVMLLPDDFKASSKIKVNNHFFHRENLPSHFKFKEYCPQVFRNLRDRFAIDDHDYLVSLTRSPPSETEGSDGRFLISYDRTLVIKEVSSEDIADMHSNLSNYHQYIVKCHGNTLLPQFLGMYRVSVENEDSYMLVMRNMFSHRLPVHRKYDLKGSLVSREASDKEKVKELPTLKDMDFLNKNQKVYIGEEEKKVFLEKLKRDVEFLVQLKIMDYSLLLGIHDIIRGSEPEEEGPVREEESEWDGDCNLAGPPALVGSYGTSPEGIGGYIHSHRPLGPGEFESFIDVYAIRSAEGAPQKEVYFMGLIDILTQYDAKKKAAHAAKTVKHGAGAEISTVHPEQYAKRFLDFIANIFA
UniProt Q921G7: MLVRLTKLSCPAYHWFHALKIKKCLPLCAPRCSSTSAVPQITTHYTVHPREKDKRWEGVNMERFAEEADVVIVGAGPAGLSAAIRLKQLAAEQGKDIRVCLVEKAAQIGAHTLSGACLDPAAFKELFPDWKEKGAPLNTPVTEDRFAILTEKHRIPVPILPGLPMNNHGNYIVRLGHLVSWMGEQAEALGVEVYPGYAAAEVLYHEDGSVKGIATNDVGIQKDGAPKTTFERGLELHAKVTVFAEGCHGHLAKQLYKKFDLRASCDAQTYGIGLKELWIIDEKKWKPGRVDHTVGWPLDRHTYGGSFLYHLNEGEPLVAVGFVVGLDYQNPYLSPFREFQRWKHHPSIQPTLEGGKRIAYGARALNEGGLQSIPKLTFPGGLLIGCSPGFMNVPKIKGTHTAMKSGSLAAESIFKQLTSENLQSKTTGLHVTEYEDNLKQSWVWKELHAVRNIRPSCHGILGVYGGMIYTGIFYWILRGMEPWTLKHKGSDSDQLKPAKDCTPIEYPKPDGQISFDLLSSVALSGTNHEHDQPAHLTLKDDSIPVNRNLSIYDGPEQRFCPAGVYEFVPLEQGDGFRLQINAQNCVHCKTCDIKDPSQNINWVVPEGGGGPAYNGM

The other results are listed elsewhere or left out. Small differences around the control level are noise.

On to UniProt Q8VEJ4, for which the “log2 fold change of pooled soluble protein” value (shortened to “log2 fold change”) is -0.116.

Consider UniProt Q99J83, for which the “log2 fold change” value is -0.0489.

As to UniProt Q99JB8, the “log2 fold change” value worked out at 0.0882.

Regarding UniProt Q91YT2, the “log2 fold change” value worked out at 0.0122.

As to UniProt Q91W67, the “log2 fold change” value was found to be 0.0133.

For UniProt Q91XI1, the “log2 fold change” value was -0.186.

In the case of UniProt Q91W89, the “log2 fold change” value stood at 0.0452.

UniProt Q8VEM8: the “log2 fold change” value is -0.0669.

For the target UniProt Q924Y0, the “log2 fold change” value was -0.253.

Turning to UniProt Q923X4, the “log2 fold change” value is -0.279.

Regarding UniProt Q8VHE0, the “log2 fold change” value was -0.0439.

UniProt Q91VS7: the “log2 fold change” value was -0.0812.

Regarding UniProt Q91YE6, the “log2 fold change” value was found to be 0.128.

As for UniProt Q91YX5, the “log2 fold change” value was determined as 0.053.

For UniProt Q91WN4, the “log2 fold change” value is 0.0245.

As to UniProt Q91YE3, the “log2 fold change” value stood at 0.254.

On to UniProt Q91YR1, for which the “log2 fold change” value was 0.0864.

In the case of UniProt Q91VF2, the “log2 fold change” value came to 0.174.

On to UniProt Q8VE19, for which the “log2 fold change” value is -0.0289.

Consider UniProt Q8VHH5, for which the “log2 fold change” value was -0.124.

UniProt Q91Z58: the “log2 fold change” value was -0.00962.

Consider UniProt Q91WK2, for which the “log2 fold change” value is -0.0174.

In the case of UniProt Q91WV0, the “log2 fold change” value stood at 0.123.

Take UniProt Q921F4: the “log2 fold change” value is -0.185.

Turning to UniProt Q91V92, the “log2 fold change” value is -0.0416.

For the target UniProt Q8VH51, the “log2 fold change” value was -0.0129.

In the case of UniProt Q91Z96, the “log2 fold change” value is 0.988.

With UniProt Q91V16, the “log2 fold change” value was 0.000228.

Regarding UniProt Q91VW3, the “log2 fold change” value came out at 0.00985.

Take UniProt Q91WG1: the “log2 fold change” value came out at 0.141.

On to UniProt Q924T3, for which the “log2 fold change” value amounted to 0.0534.

For UniProt Q99JB2, the “log2 fold change” value is -0.0554.

In the case of UniProt Q8VD31, the “log2 fold change” value was 0.000361.

With UniProt Q91XU3, the “log2 fold change” value was -0.21.

As to UniProt Q8VDG5, the “log2 fold change” value is -0.0576.

For UniProt Q8VIM9, the “log2 fold change” value was 0.404.

Turning to UniProt Q921G7, the “log2 fold change” value came to 0.0942.

The record behind these values is the supplement of paper PMC12819154, “High-throughput peptide-centric local stability assay extends protein–ligand identification to membrane proteins, tissues and bacteria” (Nature Structural & Molecular Biology, 2025).
